Assay results taken from PubChem BioAssay AID624297 (National Center for Advancing Translational Sciences (NCATS), 2012).
Several values for one entry are separate records, joined by “and”; a condition that tells them apart may be missing. Equal values may be shown once. About 6,200 (1.8%) of roughly 340,000 compounds were called active. This list was built around the results that the source calls inconclusive (neither active nor inactive); the mix of calls is not that of the screen. Calls come from the whole dose curve; as a rule, active = well fitted activation curve with a large enough effect; inconclusive = small, poorly fitted or top-dose-only effect; inactive = no such curve, though single readings can be large or run the other way. A potency beside an inconclusive call is a rough fit, not a confirmed value.

Assay: A quantitative high throughput screen for small molecules that induce DNA re-replication in SW480 colon adenocarcinoma cells. For re-replication activation: % of control where 0% means no effect. Note: nearly all actives have a fitted effect of over 55% in size.
Conditions: Hoechst DNA content imaging, 48 h; re-replication activation: at 46.1 µM (top of the series)
Summary of the method: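 Quantitative HTS format with DMSO vehicle controls; 48 hr drug incubation at 37 C, then 40 min Hoechst staining and scanning imager measurement at 405 nm excitation.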
Potency is the fitted concentration of half-maximal effect.

Row | Structure (SMILES) | Potency | re-replication activation
1 | O=C(Oc1cccc2cccnc12)c1ccccc1 | inconclusive: 26.6 µM [activator, single point] | 
2 | COc1cc(CNCCc2c[nH]c3ccccc23)cc(OC)c1 | inconclusive: 29.1 µM [activator, single point] | 
3 | CCN(CC)c1ccc(N=Cc2c(O)n(CCc3ccc(OC)c(OC)c3)c(=O)[nH]c2=O)cc1 | inconclusive: 20.6 µM [activator, single point] | 
4 | CCN(CC)C1=NC(=[N+](CC)CC)c2ccccc21 | inconclusive: 11.6 µM [activator, partial curve, poor fit] | 
5 | O=C1NC(=O)C(=Cc2ccc(-c3ccc(F)cc3O)o2)C(=O)N1 | inconclusive: 18.4 µM [activator, single point] | 
7 | Cc1[nH]c2ccc(OC(F)(F)F)cc2c1CCNCc1ccc(Cl)cc1 | active: 16.4 µM | 
8 | CCOP(=O)(OCC)C(NC(=O)C(Cl)Cl)C(Cl)(Cl)Cl (configuration not stated) | inconclusive: 32.6 µM [activator, partial curve, poor fit] | 
9 | N#Cc1ccccc1Cn1cc(C(=O)c2cccs2)c2ccccc21 | inactive | 
10 | C[C@@H]1C[C@@H]2O[C@H]2/C=C\C=C\C(=O)Cc2c(Cl)c(O)cc(O)c2C(=O)O1 | inconclusive: 0.461 µM [activator, full curve, poor fit] | 
11 | O=C(CCl)Nc1sccc1C(=O)c1ccccc1 | inconclusive: 0.184 µM [activator, full curve] | 
12 | CCOc1cc2c(cc1OCC)-n1cccc1C(c1c(O)cccc1OC)NC2 (configuration not stated) | inconclusive: 29.1 µM [activator, single point] | 
13 | CN1CCN(S(=O)(=O)c2cnc(Cl)c(Br)c2)CC1 | inconclusive: 11.6 µM [activator, partial curve, poor fit] | 
14 | COc1ccc(CCn2c(O)c(C=NCc3cccnc3)c(=O)[nH]c2=O)cc1OC | inconclusive: 20.6 µM [activator, single point] | 
15 | CC(=O)Nc1ccc(N=Cc2c(O)n(Cc3ccco3)c(=O)[nH]c2=O)cc1 | inconclusive: 18.4 µM [activator, single point] | 
16 | NC1=C([N+](=O)[O-])C(c2ccc3c(c2)OCO3)c2c(c3ccccc3oc2=O)O1 (configuration not stated) | inactive | 
17 | CC1C(=O)OC2CCN3CC=C(COC(=O)C(C)(O)C1(C)O)C23 (configuration not stated) | inconclusive: 0.651 µM [activator, partial curve] | 
18 | Cc1ccc2c(c1)C1CN(C)CCC1N2C(=O)COc1ccc(N(C)S(=O)(=O)c2cccs2)cc1 (configuration not stated) | inconclusive: 32.6 µM [activator, partial curve, poor fit] | 
19 | CCN(CCCl)Cc1ccccc1Br | inconclusive: 10 µM [activator, single point] | 
20 | CC(=O)OCC[N+](C)(C)C | inconclusive: 1.26 µM [activator, single point] | 
21 | COc1ccc(Cn2c(O)c(C=Nc3c(C)n(C)n(-c4ccccc4)c3=O)c(=O)[nH]c2=O)cc1 | inconclusive: 0.92 µM [activator, partial curve, poor fit] | 

Given as a markdown table: entries from further up.

| Row | Structure (SMILES) | Potency | re-replication activation |
| --- | --- | --- | --- |
| 9 | N#Cc1ccccc1Cn1cc(C(=O)c2cccs2)c2ccccc21 | inactive |  |
| 12 | CCOc1cc2c(cc1OCC)-n1cccc1C(c1c(O)cccc1OC)NC2 (configuration not stated) | inconclusive: 29.1 µM [activator, single point] |  |
| 15 | CC(=O)Nc1ccc(N=Cc2c(O)n(Cc3ccco3)c(=O)[nH]c2=O)cc1 | inconclusive: 18.4 µM [activator, single point] |  |

Remaining list, next part.

Row | Structure (SMILES) | Potency | re-replication activation
22 | COc1cc(/C=C/C(=O)c2c(O)n(CCc3ccccc3)c(=O)[nH]c2=O)ccc1O | inconclusive: 23.1 µM [activator, single point] | 
23 | Cc1noc(C)c1C(=O)N1CCC2(CC1)Oc1ccc(F)cc1C(=O)C21CC(c2ccc(Cl)cc2)=NO1 (configuration not stated) | inconclusive: 29.1 µM [activator, partial curve, poor fit] | 
24 | Brc1ccccc1 | inconclusive: 0.82 µM [activator, partial curve, poor fit] | 
25 | CC1=NNC(=O)C1Br (configuration not stated) | inconclusive: 23.1 µM [activator, single point] | 
26 | COCC(=O)N(c1c(C)cccc1C)C(C)C(=O)OC (configuration not stated) | inactive | 
27 | CCCCCn1c(N)c(C(=O)NCCN2CCOCC2)c2nc3ccccc3nc21 | active: 2.91 µM | 
28 | COC(=O)C1=C(c2ccc(OC(F)(F)F)cc2)C[C@@H]2CC[C@H]1N2C(=O)NCCOc1ccc(OC)cc1 |  | inactive: -62% [at 9.22 µM]
29 | O=C(O)c1ccccc1-c1ccc(C=C2C(=O)N(c3ccccc3)C(=S)N(c3ccccc3)C2=O)o1 | inconclusive: 8.2 µM [activator, partial curve, poor fit] | 
30 | COCCNC(=O)Cn1cc(/C=C2\C(=O)NC(=O)N(c3cccc(C)c3C)C2=O)c2ccccc21 | inconclusive: 29.1 µM [activator, partial curve, poor fit] | 
31 | Cc1cccc(-n2c(O)c(C=Nc3ccc(Br)cn3)c(=O)[nH]c2=O)c1 | inconclusive: 18.4 µM [activator, partial curve, poor fit] | 
32 | CC(C)OS(C)(=O)=O | inconclusive: 23.1 µM [activator, single point] | 
33 | Fc1ccccc1CCNCc1ccccc1 | inconclusive: 23.1 µM [activator, partial curve, poor fit] | 
34 | Cc1ccc(C)c(OCC(=O)N2CCN(Cc3ccc4c(c3)OCO4)CC2)c1 | inactive | 
35 | Cc1cc(S(=O)(=O)NC(C)C)ccc1OCC(=O)N1CCN(Cc2ccc3c(c2)OCO3)CC1 | inactive | 
36 | CN1C(=O)C(=Cc2ccccc2OCCOc2ccc([N+](=O)[O-])cc2)C(=O)N(C)C1=O | inconclusive: 20.6 µM [activator, single point] | 
37 | CN1CCN(CCOC2c3ccccc3CSc3ccc(Cl)cc32)CC1 (configuration not stated) | inconclusive: 29.1 µM [activator, single point] | 
38 | Cc1cccc(NC2=NCCCS2)c1 | inconclusive: 0.731 µM [activator, partial curve, poor fit] | 
39 | CC(=O)c1ccc(-c2ccccc2)cc1 | inconclusive: 29.1 µM [activator, single point] | 
40 | CCOC(=O)C1(CCOc2ccccc2)CCN(Cc2ccccc2OC)CC1 | inactive | 
41 | CCc1nc(N2CCNCC2)c(C#N)c2c1CSC(C)(C)C2 | inactive | 
42 | CCn1nc(-c2cccs2)nc2c(=O)n(C)c(=O)nc1-2 | inconclusive: 0.651 µM [activator, full curve, poor fit] | 
